Source: the supplement of paper PMC6078165

Tested on: HCC1143
Test: relative JC-1 red fluorescence (viability) vs pre-drug, coculture with fibroblast (fraction); higher = more viable cancer cells
Description: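 JC-1 labelled TNBC cells cocultured 1:1 (1,500 cells each) with CellTrace Violet stained primary or stromal fibroblasts in 384-well plates in FluoroBrite medium, treated with one of 42 anticancer drugs at 0.1, 1, 10 or 100 uM. JC-1 red fluorescence (mitochondrial integrity in cancer cells only) was read by plate reader every 8 h for 72 h. Values are normalised to each well's pre-drug value. The stock of one drug was tenfold lower, so its dose labels may be too high.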

CC(C)C[C@H](NC(=O)[C@H](Cc1ccccc1)NC(=O)c1cnccn1)B(O)O [Bortezomib]
relative JC-1 red fluorescence
Settings | 8 h | 16 h | 24 h | 32 h | 40 h | 48 h | 56 h | 64 h | 72 h
0.1 µM, coculture fibroblast: C12385 | 0.7754 | 0.645 | 0.615 | 0.58 | 0.561 | 0.597 | 0.602 | 0.633 | 0.668
0.1 µM, coculture fibroblast: H6013 | 0.679 | 0.54 | 0.4964 | 0.458 | 0.468 | 0.507 | 0.505 | 0.519 | 0.438
0.1 µM, coculture fibroblast: H6019 | 0.722 | 0.617 | 0.64 | 0.64 | 0.649 | 0.704 | 0.714 | 0.735 | 0.749
0.1 µM, coculture fibroblast: H6076 | 0.826 | 0.701 | 0.65 | 0.702 | 0.637 | 0.674 | 0.672 | 0.668 | 0.728
0.1 µM, coculture fibroblast: H6231 | 0.7993 | 0.732 | 0.618 | 0.633 | 0.548 | 0.538 | 0.512 | 0.493 | 0.512
0.1 µM, coculture fibroblast: HADF | 0.706 | 0.569 | 0.504 | 0.463 | 0.421 | 0.431 | 0.426 | 0.43 | 0.364
0.1 µM, coculture fibroblast: HCFa | 0.807 | 0.684 | 0.643 | 0.62 | 0.617 | 0.636 | 0.621 | 0.609 | 0.519
0.1 µM, coculture fibroblast: HCPF | 0.8065 | 0.745 | 0.629 | 0.6 | 0.522 | 0.513 | 0.489 | 0.47 | 0.499
0.1 µM, coculture fibroblast: HHSteC | 0.817 | 0.661 | 0.587 | 0.528 | 0.511 | 0.512 | 0.49 | 0.484 | 0.408
0.1 µM, coculture fibroblast: HMF | 0.824 | 0.726 | 0.596 | 0.609 | 0.51 | 0.516 | 0.524 | 0.518 | 0.543
0.1 µM, coculture fibroblast: HPFa | 0.815 | 0.634 | 0.596 | 0.546 | 0.53 | 0.564 | 0.561 | 0.574 | 0.593
0.1 µM, coculture fibroblast: HUF | 0.739 | 0.565 | 0.493 | 0.445 | 0.426 | 0.445 | 0.4329 | 0.437 | 0.443
0.1 µM, coculture fibroblast: Hs5 | 0.869 | 0.754 | 0.684 | 0.681 | 0.572 | 0.545 | 0.525 | 0.509 | 0.547
0.1 µM, coculture fibroblast: Hs27A | 0.677 | 0.613 | 0.587 | 0.58 | 0.551 | 0.596 | 0.575 | 0.58 | 0.475
0.1 µM, coculture fibroblast: Hs343T | 0.837 | 0.7695 | 0.676 | 0.677 | 0.591 | 0.595 | 0.578 | 0.576 | 0.597
0.1 µM, coculture fibroblast: WS1 | 0.714 | 0.5501 | 0.499 | 0.458 | 0.435 | 0.461 | 0.463 | 0.486 | 0.512
1 µM, coculture fibroblast: C12385 | 0.7383 | 0.506 | 0.357 | 0.301 | 0.265 | 0.253 | 0.247 | 0.241 | 0.243
1 µM, coculture fibroblast: H6013 | 0.627 | 0.423 | 0.373 | 0.346 | 0.337 | 0.358 | 0.342 | 0.344 | 0.28
1 µM, coculture fibroblast: H6019 | 0.695 | 0.518 | 0.424 | 0.39 | 0.375 | 0.39 | 0.385 | 0.388 | 0.391
1 µM, coculture fibroblast: H6076 | 0.791 | 0.644 | 0.484 | 0.518 | 0.44 | 0.449 | 0.449 | 0.445 | 0.482
1 µM, coculture fibroblast: H6231 | 0.7786 | 0.648 | 0.47874 | 0.495 | 0.408 | 0.394 | 0.365 | 0.344 | 0.34
1 µM, coculture fibroblast: HADF | 0.705 | 0.538 | 0.485 | 0.464 | 0.445 | 0.458 | 0.442 | 0.447 | 0.369
1 µM, coculture fibroblast: HCFa | 0.7352 | 0.538 | 0.493 | 0.476 | 0.473 | 0.474 | 0.442 | 0.42 | 0.345
1 µM, coculture fibroblast: HCPF | 0.778 | 0.7332 | 0.547 | 0.488 | 0.431 | 0.398 | 0.355 | 0.328 | 0.329
1 µM, coculture fibroblast: HHSteC | 0.771 | 0.5438 | 0.5004 | 0.4486 | 0.415 | 0.399 | 0.366 | 0.354 | 0.283
1 µM, coculture fibroblast: HMF | 0.7737 | 0.7 | 0.451 | 0.4144 | 0.317 | 0.297 | 0.275 | 0.269 | 0.28
1 µM, coculture fibroblast: HPFa | 0.812 | 0.524 | 0.454 | 0.424 | 0.375 | 0.377 | 0.353 | 0.356 | 0.352
1 µM, coculture fibroblast: HUF | 0.785 | 0.544 | 0.45 | 0.394 | 0.365 | 0.364 | 0.341 | 0.332 | 0.325
1 µM, coculture fibroblast: Hs5 | 0.846 | 0.726 | 0.611 | 0.62 | 0.515 | 0.489 | 0.465 | 0.443 | 0.453
1 µM, coculture fibroblast: Hs27A | 0.65 | 0.467 | 0.454 | 0.48 | 0.433 | 0.458 | 0.425 | 0.415 | 0.325
1 µM, coculture fibroblast: Hs343T | 0.7964 | 0.766 | 0.555 | 0.486 | 0.412 | 0.38 | 0.333 | 0.317 | 0.319
1 µM, coculture fibroblast: WS1 | 0.6904 | 0.459 | 0.345 | 0.293 | 0.267 | 0.264 | 0.251 | 0.253 | 0.259
10 µM, coculture fibroblast: C12385 | 0.666 | 0.474 | 0.403 | 0.365 | 0.332 | 0.336 | 0.328 | 0.319 | 0.319
10 µM, coculture fibroblast: H6013 | 0.648 | 0.482 | 0.435 | 0.401 | 0.416 | 0.441 | 0.439 | 0.439 | 0.354
10 µM, coculture fibroblast: H6019 | 0.578 | 0.415 | 0.368 | 0.329 | 0.316 | 0.328 | 0.328 | 0.329 | 0.33
10 µM, coculture fibroblast: H6076 | 0.7706 | 0.622 | 0.541 | 0.598 | 0.506 | 0.521 | 0.525 | 0.505 | 0.548
10 µM, coculture fibroblast: H6231 | 0.846 | 0.6716 | 0.524 | 0.58 | 0.432 | 0.42 | 0.391 | 0.369 | 0.375
10 µM, coculture fibroblast: HADF | 0.6263 | 0.452 | 0.378 | 0.321 | 0.289 | 0.293 | 0.274 | 0.267 | 0.188
10 µM, coculture fibroblast: HCFa | 0.679 | 0.448 | 0.3885 | 0.332 | 0.302 | 0.291 | 0.268 | 0.256 | 0.197
10 µM, coculture fibroblast: HCPF | 0.8239 | 0.698 | 0.5952 | 0.649 | 0.518 | 0.512 | 0.479 | 0.4521 | 0.4718
10 µM, coculture fibroblast: HHSteC | 0.729 | 0.534 | 0.436 | 0.373 | 0.361 | 0.356 | 0.332 | 0.322 | 0.251
10 µM, coculture fibroblast: HMF | 0.79 | 0.702 | 0.543 | 0.547 | 0.417 | 0.416 | 0.399 | 0.389 | 0.393
10 µM, coculture fibroblast: HPFa | 0.702 | 0.387 | 0.323 | 0.273 | 0.242 | 0.243 | 0.229 | 0.222 | 0.221
10 µM, coculture fibroblast: HUF | 0.701 | 0.457 | 0.342 | 0.273 | 0.2336 | 0.23 | 0.208 | 0.198 | 0.194
10 µM, coculture fibroblast: Hs5 | 0.819 | 0.651 | 0.54 | 0.554 | 0.438 | 0.419 | 0.4 | 0.377 | 0.398
10 µM, coculture fibroblast: Hs27A | 0.592 | 0.381 | 0.341 | 0.331 | 0.3048 | 0.3336 | 0.309 | 0.302 | 0.214
10 µM, coculture fibroblast: Hs343T | 0.799 | 0.637 | 0.475 | 0.476 | 0.3643 | 0.355 | 0.329 | 0.317 | 0.312
10 µM, coculture fibroblast: WS1 | 0.623 | 0.392 | 0.325 | 0.275 | 0.244 | 0.239 | 0.224 | 0.219 | 0.22
100 µM, coculture fibroblast: C12385 | 0.697 | 0.423 | 0.32 | 0.259 | 0.228 | 0.216 | 0.204 | 0.193 | 0.188
100 µM, coculture fibroblast: H6013 | 0.615 | 0.435 | 0.43 | 0.402 | 0.405 | 0.422 | 0.408 | 0.407 | 0.32
100 µM, coculture fibroblast: H6019 | 0.685 | 0.521 | 0.49 | 0.459 | 0.452 | 0.463 | 0.456 | 0.46 | 0.458
100 µM, coculture fibroblast: H6076 | 0.773 | 0.5494 | 0.432 | 0.465 | 0.391 | 0.3933 | 0.372 | 0.36 | 0.381
100 µM, coculture fibroblast: H6231 | 0.7996 | 0.665 | 0.515 | 0.578 | 0.447 | 0.432 | 0.396 | 0.368 | 0.367
100 µM, coculture fibroblast: HADF | 0.698 | 0.504 | 0.429 | 0.376 | 0.316 | 0.311 | 0.284 | 0.269 | 0.198
100 µM, coculture fibroblast: HCFa | 0.74 | 0.558 | 0.515 | 0.458 | 0.422 | 0.412 | 0.384 | 0.367 | 0.301
100 µM, coculture fibroblast: HCPF | 0.8 | 0.704 | 0.545 | 0.535 | 0.444 | 0.429 | 0.398 | 0.37 | 0.375
100 µM, coculture fibroblast: HHSteC | 0.8 | 0.587 | 0.541 | 0.485 | 0.449 | 0.437 | 0.402 | 0.382 | 0.302
100 µM, coculture fibroblast: HMF | 0.783 | 0.627 | 0.423 | 0.419 | 0.295 | 0.284 | 0.274 | 0.266 | 0.27
100 µM, coculture fibroblast: HPFa | 0.7455 | 0.465 | 0.398 | 0.37 | 0.323 | 0.32 | 0.294 | 0.288 | 0.281
100 µM, coculture fibroblast: HUF | 0.7463 | 0.503 | 0.408 | 0.306 | 0.273 | 0.268 | 0.238 | 0.225 | 0.219
100 µM, coculture fibroblast: Hs5 | 0.844 | 0.604 | 0.483 | 0.493 | 0.394 | 0.374 | 0.358 | 0.34 | 0.348
100 µM, coculture fibroblast: Hs27A | 0.566 | 0.368 | 0.332 | 0.345 | 0.296 | 0.312 | 0.288 | 0.275 | 0.201
100 µM, coculture fibroblast: Hs343T | 0.781 | 0.576 | 0.412 | 0.404 | 0.304 | 0.291 | 0.269 | 0.257 | 0.25
100 µM, coculture fibroblast: WS1 | 0.709 | 0.482 | 0.352 | 0.286 | 0.25 | 0.239 | 0.222 | 0.212 | 0.205

Values are relative to the signal before dosing, not to a vehicle control; the signal also falls without drug.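 Labels refer to human fibroblasts, largely primary: uterine (C12385, HUF), lung (H6013), bone (Hs27A), adrenal (HADF), skin (WS1), plus mammary HMF and breast cancer-associated Hs343T. Cancer lines are basal-like or mesenchymal-like triple-negative breast cancer. The paper counts as hits responses shifting over 3x the replicate standard deviation. The tissue of the other fibroblasts is not given here.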
